# Experimental data from PubChem BioAssay AID248 (DTP/NCI, 2004).
# The list is a part of this screen's results and no random one: it gathers tests that were run many times, whatever their T/C, doses with no T/C, and many T/C values between a quarter and a half above the control. Other doses and runs of a compound stand elsewhere. T/C gives the treated animals as a percentage of the vehicle group. Some entries give survivors of the animals treated and no T/C: the source files T/C as zero there, which appears to mark a toxic dose or a test without result, not a measured value. Some doses without a T/C left all or most animals alive at the check, yet need not have been tolerated: the source hardly ever lists a survival T/C far under the control, and the zero likely stands for such cases as well. Survivors were counted at the toxicity check, usually on the fifth day, unless a day is given; later deaths do not show. Schedules are NCI's codes, read here as Q, the interval in days (D) or hours (H), X, the number of doses. Some schedules carry Z or #; the key to these is not given. Some doses were run more than once; their values stand side by side, smallest first. Where survival is the endpoint, this PubChem deposit counts one and a half times the control or more as active, and values a quarter to a half above the control carry no call in these data; other NCI protocols may use other cut-offs.
# Tested on: L1210 leukemia ip in BDF1 mice, survival T/C
# Assay: NCI In Vivo Anticancer Drug Screen. Data for tumor model L1210 Leukemia (intraperitoneal) in B6D2F1 (BDF1) mice
# Conditions: T/C endpoint: mean survival time, higher T/C = longer survival
structure (smiles),measurement,setting,value
CC[C@@]1(O)C(=O)OCc2c1cc1n(c2=O)Cc2cc3ccccc3nc2-1,T/C,"dose: 0.25 mg/kg/injection, schedule: Q01DX010 (ip), vehicle: saline",146 % of control
same,T/C,"dose: 0.25 mg/kg/injection, schedule: Q01DX Z (ip), vehicle: carboxymethylcellulose (CMC)",127 % of control
same,T/C,"dose: 0.4 mg/kg/injection, schedule: Q01DX Z (ip), vehicle: saline",135 % of control
same,T/C,"dose: 0.5 mg/kg/injection, schedule: Q01DX010 (ip), vehicle: saline",148 % of control
same,T/C,"dose: 0.5 mg/kg/injection, schedule: Q01DX010 (oral), vehicle: saline",140 % of control
same,T/C,"dose: 0.5 mg/kg/injection, schedule: Q01DX Z (im), vehicle: saline",125 % of control
same,T/C,"dose: 0.5 mg/kg/injection, schedule: Q01DX Z (ip), vehicle: saline",136 % of control
same,T/C,"dose: 0.5 mg/kg/injection, schedule: Q## X Z (ip), vehicle: saline",125 % of control
same,T/C,"dose: 0.5 mg/kg/injection, schedule: Q#A X Z (ip), vehicle: saline",148 % of control
same,T/C,"dose: 0.63 mg/kg/injection, schedule: Q04DX003 (ip), vehicle: Klucel (hydroxypropylcellulose) (HPC)",138 % of control
same,T/C,"dose: 0.75 mg/kg/injection, schedule: Q01DX Z (ip), vehicle: carboxymethylcellulose (CMC)",136 % of control
same,T/C,"dose: 0.75 mg/kg/injection, schedule: Q03DX Z (ip), vehicle: saline",129 % of control
same,T/C,"dose: 0.8 mg/kg/injection, schedule: Q01DX Z (ip), vehicle: saline",146 % of control
same,T/C,"dose: 1.0 mg/kg/injection, schedule: Q01DX010 (oral), vehicle: saline",142 % of control
same,T/C,"dose: 1.0 mg/kg/injection, schedule: Q01DX Z (im), vehicle: saline",125 % of control
same,T/C,"dose: 1.0 mg/kg/injection, schedule: Q01DX Z (oral), vehicle: saline",146 % of control
same,T/C,"dose: 1.0 mg/kg/injection, schedule: Q01DX Z (sc), vehicle: saline",142 % of control
same,T/C,"dose: 1.0 mg/kg/injection, schedule: Q## X Z (ip), vehicle: saline",132 % of control
same,T/C,"dose: 1.0 mg/kg/injection, schedule: Q#A X Z (ip), vehicle: saline",126 % of control
same,T/C,"dose: 1.25 mg/kg/injection, schedule: Q01DX001 (ip), vehicle: saline",126 % of control
same,T/C,"dose: 2.0 mg/kg/injection, schedule: Q01DX006 (iv), vehicle: saline",131 % of control
same,T/C,"dose: 2.0 mg/kg/injection, schedule: Q01DX010 (iv), vehicle: saline",129 % of control
same,T/C,"dose: 2.0 mg/kg/injection, schedule: Q01DX010 (oral), vehicle: saline",125 % of control
same,T/C,"dose: 2.0 mg/kg/injection, schedule: Q01DX Z (oral), vehicle: saline",146 % of control
same,survivor count,"dose: 2.25 mg/kg/injection, schedule: Q#A X Z (ip), vehicle: saline",6 of 6
same,T/C,"dose: 3.0 mg/kg/injection, schedule: Q01DX Z (im), vehicle: saline",126 % of control
same,T/C,"dose: 3.0 mg/kg/injection, schedule: Q01DX Z (sc), vehicle: saline",126 % of control
same,T/C,"dose: 3.2 mg/kg/injection, schedule: Q01DX Z (ip), vehicle: saline",147 % of control
same,survivor count,"dose: 3.35 mg/kg/injection, schedule: Q#A X Z (ip), vehicle: saline",5 of 6 and 6 of 6
same,survivor count,"dose: 4.0 mg/kg/injection, schedule: Q01DX010 (ip), vehicle: saline",6 of 6
same,survivor count,"dose: 4.0 mg/kg/injection, schedule: Q01DX010 (oral), vehicle: saline",5 of 6
same,survivor count,"dose: 4.0 mg/kg/injection, schedule: Q01DX Z (oral), vehicle: saline",6 of 6
same,T/C,"dose: 4.0 mg/kg/injection, schedule: Q07DX Z (ip), vehicle: saline",129 % of control
same,survivor count,"dose: 5.0 mg/kg/injection, schedule: Q01DX001 (ip), vehicle: saline",5 of 6
same,survivor count,"dose: 5.0 mg/kg/injection, schedule: Q01DX Z (ip), vehicle: carboxymethylcellulose (CMC)",3 of 6
same,T/C,"dose: 6.0 mg/kg/injection, schedule: Q03DX Z (ip), vehicle: saline",149 % of control
same,T/C,"dose: 6.5 mg/kg/injection, schedule: Q01DX006 (iv), vehicle: saline",126 % of control
same,survivor count,"dose: 6.5 mg/kg/injection, schedule: Q01DX Z (im), vehicle: saline",6 of 6
same,survivor count,"dose: 6.5 mg/kg/injection, schedule: Q01DX Z (sc), vehicle: saline",6 of 6
same,survivor count,"dose: 7.2 mg/kg/injection, schedule: Q01DX Z (ip), vehicle: saline",6 of 6
same,survivor count,"dose: 8.0 mg/kg/injection, schedule: Q01DX010 (ip), vehicle: saline",1 of 6
same,survivor count,"dose: 8.0 mg/kg/injection, schedule: Q01DX010 (iv), vehicle: saline",6 of 6
same,survivor count,"dose: 8.0 mg/kg/injection, schedule: Q01DX010 (oral), vehicle: saline",2 of 6
same,survivor count,"dose: 8.0 mg/kg/injection, schedule: Q01DX Z (oral), vehicle: saline",6 of 6
same,T/C,"dose: 8.0 mg/kg/injection, schedule: Q07DX Z (ip), vehicle: saline",141 % of control
same,survivor count,"dose: 9.0 mg/kg/injection, schedule: Q01DX Z (ip), vehicle: saline",6 of 6
same,survivor count,"dose: 9.5 mg/kg/injection, schedule: Q01DX Z (im), vehicle: saline",6 of 6
same,survivor count,"dose: 9.5 mg/kg/injection, schedule: Q01DX Z (sc), vehicle: saline",5 of 6
same,survivor count,"dose: 10.0 mg/kg/injection, schedule: Q01DX001 (ip), vehicle: saline",4 of 6
same,survivor count,"dose: 10.0 mg/kg/injection, schedule: Q01DX Z (ip), vehicle: carboxymethylcellulose (CMC)",2 of 6
same,survivor count,"dose: 10.0 mg/kg/injection, schedule: Q01DX Z (ip), vehicle: saline",4 of 6
same,survivor count,"dose: 13.0 mg/kg/injection, schedule: Q01DX Z (ip), vehicle: saline",5 of 6
same,survivor count,"dose: 14.5 mg/kg/injection, schedule: Q01DX Z (im), vehicle: saline",5 of 6
same,survivor count,"dose: 14.5 mg/kg/injection, schedule: Q01DX Z (sc), vehicle: saline",4 of 6
same,T/C,"dose: 16.0 mg/kg/injection, schedule: Q01DX001 (ip), vehicle: saline",129 and 140 % of control
same,survivor count,"dose: 16.0 mg/kg/injection, schedule: Q01DX010 (ip), vehicle: saline",1 of 6
same,survivor count,"dose: 16.0 mg/kg/injection, schedule: Q01DX010 (iv), vehicle: saline",4 of 6
same,survivor count,"dose: 16.0 mg/kg/injection, schedule: Q01DX Z (oral), vehicle: saline",6 of 6
same,survivor count,"dose: 20.0 mg/kg/injection, schedule: Q01DX001 (ip), vehicle: saline",1 of 6
same,survivor count,"dose: 22.0 mg/kg/injection, schedule: Q01DX006 (iv), vehicle: saline",6 of 6
same,survivor count,"dose: 22.0 mg/kg/injection, schedule: Q01DX Z (im), vehicle: saline",2 of 6
same,survivor count,"dose: 22.0 mg/kg/injection, schedule: Q01DX Z (sc), vehicle: saline",6 of 6
same,survivor count,"dose: 25.0 mg/kg/injection, schedule: Q01DX Z (ip), vehicle: carboxymethylcellulose (CMC)",0 of 6
same,survivor count,"dose: 32.01 mg/kg/injection, schedule: Q01DX010 (iv), vehicle: saline",4 of 6
same,survivor count,"dose: 35.0 mg/kg/injection, schedule: Q07DX Z (ip), vehicle: saline",3 of 6
same,T/C,"dose: 50.0 mg/kg/injection, schedule: Q01DX001 (ip), vehicle: saline",130 % of control
same,survivor count,"dose: 50.0 mg/kg/injection, schedule: Q01DX Z (ip), vehicle: carboxymethylcellulose (CMC)",0 of 6
same,survivor count,"dose: 100.0 mg/kg/injection, schedule: Q01DX Z (ip), vehicle: carboxymethylcellulose (CMC)",0 of 6
same,survivor count,"dose: 245.0 mg/kg/injection, schedule: Q01DX001 (ip), vehicle: saline",6 of 6
same,survivor count,"dose: 370.0 mg/kg/injection, schedule: Q01DX001 (ip), vehicle: saline",6 of 6
same,survivor count,"dose: 550.0 mg/kg/injection, schedule: Q01DX001 (ip), vehicle: saline",6 of 6
same,T/C,"dose: 1000.0 micrograms/kg/injection, schedule: Q01DX Z (ip), vehicle: saline",127 % of control
O=C(Nc1ccccc1)Oc1ccc(Cl)cc1Cc1ccccc1,survivor count,"dose: 200.0 mg/kg/injection, schedule: Q04DX002 (ip), vehicle: Klucel (hydroxypropylcellulose) (HPC)",3 of 3
